From the supplement of paper PMC7580552
Structures can show the parent of a compound that is named as a salt. This is one part of the list. Part of the spread comes from offsets between plates or batches.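 A K-12 lab model strain is cultured statically in 96-well plates; biofilm is measured as the absorbance of crystal violet stain retained in the wells. Drugs counted as candidate specific biofilm blockers if they strongly reduced staining while slowing planktonic growth by under 70%.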

test system: Escherichia coli W3110; test: biofilm formation (crystal violet staining) relative to untreated control; higher = more biofilm; conditions: 10 µM; 20-24 h; 30 °C; TB

| SMILES | biofilm formation |
| --- | --- |
| CC(=O)S[C@@H]1CC2=CC(=O)CC[C@]2(C)[C@H]2CC[C@@]3(C)[C@@H](CC[C@@]34CCC(=O)O4)[C@H]12 [Spironolactone] | 59% |
| CCCc1cc(C(N)=S)ccn1 [Prothionamide] | 75% |
| CC(Cc1cccc(C(F)(F)F)c1)NCCOC(=O)c1ccccc1 (stereo not given) [Benfluorex] | 56% |
| NS(=O)(=O)c1cc(C2(O)NC(=O)c3ccccc32)ccc1Cl (stereo not given) [Chlorthalidone] | 63% |
| C=CC(N)CCC(=O)O (stereo not given) [Vigabatrin hydrochloride] | 96% |
| CC(=O)OCC(=O)[C@@]1(O)CC[C@H]2[C@@H]3CCC4=CC(=O)CC[C@]4(C)[C@H]3[C@@H](O)C[C@@]21C [Cortisol acetate] | 52% |
| Cc1ncc(C[n+]2csc(CCO)c2C)c(N)n1 [Thiamine hydrochloride] | 52% |
| CC(C)c1c(C(=O)Nc2ccccc2)c(-c2ccccc2)c(-c2ccc(F)cc2)n1CC[C@@H](O)C[C@@H](O)CC(=O)O [Atorvastatin] | 97% |
| CCN[C@H]1CN(CCCOC)S(=O)(=O)c2sc(S(N)(=O)=O)cc21 [Brinzolamide] | 47% |
| CCCCN(CCCC)CCCOC(=O)c1ccc(N)cc1 [Butacaine] | 85% |
| COC(=O)Nc1nc2cc(C(=O)c3cccs3)ccc2[nH]1 [Nocodazole] | 70% |
| Cc1ccc(C(=O)c2ccc(CC(=O)O)n2C)cc1 [Tolmetin sodium salt dihydrate] | 71% |
| CC[N+](C)(CC)CCOC(=O)C1c2ccccc2Oc2ccccc21 [Methantheline bromide] | 61% |
| CC(=O)OCC(=O)[C@@]1(O)CC[C@H]2[C@@H]3CCC4=CC(=O)CC[C@]4(C)[C@@]3(F)[C@@H](O)C[C@@]21C [Fludrocortisone acetate] | 71% |
| Cc1cn[nH]c1 [Fomepizole] | 71% |
| NCCc1c[nH]cn1 [Histamine dihydrochloride] | 85% |
| OC(Cn1cncn1)(Cn1cncn1)c1ccc(F)cc1F [Fluconazole] | 104% |
| CCCOc1cc(N)ccc1C(=O)OCCN(CC)CC [Propoxycaine hydrochloride] | 73% |
| CC[N+](C)(C)c1cccc(O)c1 [Edrophonium chloride] | 67% |
| O=C1c2c(O)cccc2Cc2cccc(O)c21 [Anthralin] | 87% |
| COc1cc(C(=O)OCCCN2CCCN(CCCOC(=O)c3cc(OC)c(OC)c(OC)c3)CC2)cc(OC)c1OC [Dilazep dihydrochloride] | 82% |
| CN(C)CCCN1c2ccccc2Sc2ccc(C(F)(F)F)cc21 [Triflupromazine hydrochloride] | 69% |
| CC(=O)Oc1ccccc1C(=O)Nc1ncc([N+](=O)[O-])s1 [Nitazoxanide] | 61% |
| CCN(CC)CCOC(=O)C1(C2CCCCC2)CCCCC1 [Dicyclomine hydrochloride] | 78% |
| CC(N/C(=N\C#N)Nc1ccncc1)C(C)(C)C (stereo not given) [Pinacidil] | 47% |

2 records drawn at random from those above:

| SMILES | biofilm formation |
| --- | --- |
| CC(=O)Oc1ccccc1C(=O)Nc1ncc([N+](=O)[O-])s1 [Nitazoxanide] | 61% |
| Cc1ncc(C[n+]2csc(CCO)c2C)c(N)n1 [Thiamine hydrochloride] | 52% |

(cont.)

| SMILES | biofilm formation |
| --- | --- |
| CCCCC(O)c1ccccc1 (stereo not given) [Fenipentol] | 92% |
| N=C(NCCCCCCNC(=N)NC(=N)Nc1ccc(Cl)cc1)NC(=N)Nc1ccc(Cl)cc1 [Chlorhexidine] | 9% |
| NCc1ccccc1CC(=O)N[C@@H]1C(=O)N2C(C(=O)O)=C(CSc3nnnn3CC(=O)O)CS[C@H]12 [Ceforanide] | 2% |
| CN1CCN(C2=Nc3ccccc3Oc3ccc(Cl)cc32)CC1 [Loxapine succinate] | 69% |
| C[N+]1(C)CCC(OC(=O)C(O)(c2ccccc2)C2CCCC2)C1 (stereo not given) [Glycopyrrolate] | 71% |
| Clc1ccc(CCC(Cn2ccnc2)Sc2c(Cl)cccc2Cl)cc1 (stereo not given) [Butoconazole nitrate] | 60% |
| N#Cc1ccc(C(c2ccc(C#N)cc2)n2cncn2)cc1 [Letrozole] | 71% |
| C[C@@H]1C[C@H]2[C@@H]3C[C@H](F)C4=CC(=O)C=C[C@]4(C)[C@@]3(F)[C@@H](O)C[C@]2(C)[C@@]1(O)C(=O)CO [Flumethasone] | 75% |
| O=C(O)Cc1ccc(-c2ccccc2)cc1 [Felbinac] | 122% |
| O=C(O)c1cn(-c2ccc(F)cc2)c2cc(N3CCNCC3)c(F)cc2c1=O [Sarafloxacin] | 16% |
| COc1cc2nc(N3CCN(C(=O)C4CCCO4)CC3)nc(N)c2cc1OC (stereo not given) [Terazosin hydrochloride] | 74% |
| Nc1ccc(S(=O)(=O)Nc2ccc(Cl)nn2)cc1 [Sulfachloropyridazine] | 31% |
| CN(C)CCCOc1nn(Cc2ccccc2)c2ccccc12 [Benzydamine hydrochloride] | 56% |
| C#C[C@]1(O)CC[C@H]2[C@@H]3[C@H](C)CC4=C(CCC(=O)C4)[C@H]3CC[C@@]21C [Tibolone] | 63% |
| CC(=O)OCC(=O)[C@@]1(O)CC[C@H]2[C@@H]3CCC4=CC(=O)C=C[C@]4(C)[C@@]3(F)[C@@H](O)C[C@@]21C [Isoflupredone acetate] | 62% |
| COc1cc(C(=O)N2CCOCC2)cc(OC)c1OC [Trimetozine] | 59% |
| CC(=O)Oc1cc(C(C)C)c(OCCN(C)C)cc1C [Moxisylyte hydrochoride] | 75% |
| CC(c1cc2ccccc2s1)N(O)C(N)=O (stereo not given) [Zileuton] | 69% |
| COc1cc(C)c(/C=C/C(C)=C/C=C/C(C)=C/C(=O)O)c(C)c1C [Acitretin] | 57% |
| CC(C)OC(=O)CCC/C=C\C[C@@H]1[C@@H](CC[C@@H](O)CCc2ccccc2)[C@H](O)C[C@@H]1O [Latanoprost] | 72% |
| C[N+]1(C)CCC(=C(c2ccccc2)c2ccccc2)CC1 [Diphemanil methylsulfate] | 91% |
| NS(=O)(=O)c1cc2c(cc1Cl)NCNS2(=O)=O [Hydrochlorothiazide] | 69% |
| CN(C)CCc1c[nH]c2ccc(C[C@H]3COC(=O)N3)cc12 [Zolmitriptan] | 60% |
| CN(C)CCC=C1c2ccccc2C=Cc2ccccc21 [Cyclobenzaprine hydrochloride] | 74% |
| O=c1[nH]c(=O)n([C@H]2C[C@H](O)[C@@H](CO)O2)cc1F [Floxuridine] | 72% |
